PubChem BioAssay AID1671195 | Yale University – 2021
In all, the deposit lists about 22,000 reagents; this is an unselected part. About 1,510 of all reagents (6.9%) were called active. 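Active includes knockdowns raising or lowering LDL uptake; positive z-scores mean more uptake, negative mean less.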

Aim: 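Knockdowns that increase or decrease uptake of fluorescent LDL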 (primary screen)
Cells: human Huh7 hepatoma cells
Knock-down reagent: siRNA pool against human genes, 18 nM
Timing: about 2 to 2.5 days of knockdown, then 8 h LDL uptake
Conditions: DiI-labelled LDL at 30 µg/ml for 8 h, in lipoprotein-deficient serum medium
Detection: 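Fluorescent LDL signal imaged in cells, scaled to the plate median, robust z-score for each replicate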
Direction: robust z-score: higher = more LDL uptake after knockdown
Call rule: 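a gene counts as active if at least two replicate z-scores exceed ±2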

no.	gene	robust z-score, replicate 1	robust z-score, replicate 2	robust z-score, replicate 3	call
1	H2BC21	1.28	1.28	1.84	inactive
2	IDH1	0.426	-0.344	0.33	inactive
3	NCAPH2	-0.668	-0.672	-2.43	inactive
4	AKR1C2	-1.92	-1.54	-1.93	inactive
5	SIT1	-1.3	0.492	-1.49	inactive
6	EDRF1	-1.22	-0.0479	0.809	inactive
7	PRELID2	2.17	2.96	2.6	active
8	LOC387880 (retired record)	-1.27	-1.52	-1.31	inactive
9	SPRY1	-1.05	-1.61	-0.958	inactive
10	CACNA1B	1.39	0.719	0.763	inactive
11	SNX4	-0.831	-0.706	-0.966	inactive
12	ESYT3	-1.72	-1.72	-1.99	inactive
13	SEC61G	-2.1	-0.476	-1.56	inactive
14	ZNF280A	-1.18	-0.954	-1.33	inactive
15	C19orf44	0.887	0.425	0.53	inactive
16	GOLGA2P9	-1.15	-1.17	-1.5	inactive
17	ARL6IP5	0.119	-0.322	-0.184	inactive
18	B3GAT2	-1.15	-0.909	-1.41	inactive
19	LOC339065 (retired record)	-0.385	-0.479	-0.707	inactive
20	LOC390557 (retired record)	-0.636	-0.742	-0.823	inactive
21	EEF1A1P33	-0.785	-0.71	-0.288	inactive
22	COL28A1	0.0663	0.554	0.56	inactive
23	NAP1L2	1.32	1.97	1.81	inactive
24	EFCAB13	1.64	1.12	1.06	inactive
25	RHBDF1	-0.0977	-0.834	-0.513	inactive
26	ZNF274	-0.528	-0.0734	-0.207	inactive
27	MORF4L1	-1.22	0.564	-0.857	inactive
28	TRIM58	4.1	0.947	1.01	inactive
29	C7orf33	0.0366	-0.542	-0.467	inactive
30	LHFPL2	-0.67	-0.924	-1.41	inactive
31	LOC390865 (retired record)	-1.82	-1.82	-1.68	inactive
32	GJA1	-0.618	-0.557	-0.145	inactive
33	C8orf16	-0.796	-0.745	-0.428	inactive
34	EXO1	-0.0843	0.224	0.323	inactive
35	ANKRD10	-2.66	-2.27	-2.19	active
36	REDIC1	0.209	0.0633	0.273	inactive
37	GCNT2	-1.8	-0.0125	-1.6	inactive
38	C9orf43	-0.306	-0.219	0.0122	inactive
39	NFATC2IP	0.839	1.01	1.13	inactive
40	LOC388131 (retired record)	0.344	1.08	0.692	inactive
41	BTF3	-0.979	-0.749	-0.97	inactive
42	MTX2	-0.374	-1.29	-0.15	inactive
43	C4orf36	1.28	0.61	0.413	inactive
44	SYNJ1	2.1	1.92	2.44	active
45	TEC	0.584	-0.394	0.3	inactive
46	OR52B4	0.045	-1.53	-0.957	inactive
47	LHFPL6	0.16	-0.474	-0.514	inactive
48	PHF21B	-0.974	-0.773	-1.1	inactive
49	EPGN	3.93	3.75	3.44	active
50	H2AC4	2.38	-0.501	-0.0869	inactive
51	SCG2	-1.51	0.36	-0.341	inactive
52	NHLRC3	-0.678	-1.15	-0.549	inactive
53	SMCHD1	-1.44	0.706	-1.43	inactive
54	LOC442717 (retired record)	-0.201	0.26	-0.119	inactive
55	TSSK2	1.78	0.606	0.052	inactive
56	ARL2BP	1.34	1.58	1.4	inactive
57	KDM2B	0.0867	0.342	-0.436	inactive
58	LRRC31	-1.51	-1.37	-1.47	inactive
59	PRR19	-0.267	-0.304	-0.399	inactive
60	CRTAC1	0.396	0.805	1.03	inactive
61	CRYBB2	-1.13	0.177	-0.758	inactive
62	PCDH1	0.0861	0.316	0.167	inactive
63	LOC440827 (retired record)	0.33	0.672	-0.208	inactive
64	CLIC1P1	2.22	2.05	2.56	active
65	CSRNP1	-1.35	-2.03	-1.55	inactive
66	EDN2	-0.726	0.667	-0.137	inactive
67	OGDH	0.382	0.953	0.576	inactive
68	CFL2	0.166	-0.069	-0.703	inactive
69	NEK4	-1.12	-1.54	-1.81	inactive
70	STXBP4	0.483	0.649	0.593	inactive
71	ZMPSTE24	0.29	-0.136	0.721	inactive
72	SLX4IP	-0.111	0.886	0.0625	inactive
73	LOC442072 (retired record)	-0.0826	-0.459	-0.31	inactive
74	LOC339793 (retired record)	-2.13	-2.19	-2.16	active
75	ANGPTL5	-1.48	-1.14	-0.0548	inactive
76	SNRNP48	-0.142	-0.958	-0.489	inactive
77	CCL11	-0.901	-0.433	-0.307	inactive
78	LOC440860 (retired record)	-0.666	-0.899	-1.08	inactive
79	LOC388629 (retired record)	0.59	0.51	0.174	inactive
80	MID2	0.584	-0.62	-0.353	inactive
81	ST8SIA1	-0.398	-0.32	-1.95	inactive
82	OR7G3	-1.02	-0.784	-0.418	inactive
83	TAC3	-1.4	-0.747	-0.564	inactive
84	INPP5K	-1.89	-1.86	-1.95	inactive
85	PMPCA	0.234	0.799	-0.0545	inactive
86	WDR35	0.168	0.887	-0.304	inactive
87	OR10H1	-2.35	-0.487	-1.76	inactive

Individual results from above:
Under “robust z-score, replicate 3”, LOC440827 (retired record) reads -0.208
For “call”, SYNJ1 shows active
Entry of NEK4 under “robust z-score, replicate 2”: -1.54
Value for LOC387880 (retired record) under “robust z-score, replicate 3”: -1.31
BTF3, robust z-score, replicate 2 → -0.749
Value for PCDH1 under “robust z-score, replicate 3”: 0.167
